From the supplement of paper PMC3334620
Whole data set: some 33,000 sequences, median “E-score (-0.5 to 0.5)” near -0.016, cut for the highest 2% near 0.3. The list shows a part of the results.

Biological target: T1, Yer184c (UniProt P39961)
T1 sequence: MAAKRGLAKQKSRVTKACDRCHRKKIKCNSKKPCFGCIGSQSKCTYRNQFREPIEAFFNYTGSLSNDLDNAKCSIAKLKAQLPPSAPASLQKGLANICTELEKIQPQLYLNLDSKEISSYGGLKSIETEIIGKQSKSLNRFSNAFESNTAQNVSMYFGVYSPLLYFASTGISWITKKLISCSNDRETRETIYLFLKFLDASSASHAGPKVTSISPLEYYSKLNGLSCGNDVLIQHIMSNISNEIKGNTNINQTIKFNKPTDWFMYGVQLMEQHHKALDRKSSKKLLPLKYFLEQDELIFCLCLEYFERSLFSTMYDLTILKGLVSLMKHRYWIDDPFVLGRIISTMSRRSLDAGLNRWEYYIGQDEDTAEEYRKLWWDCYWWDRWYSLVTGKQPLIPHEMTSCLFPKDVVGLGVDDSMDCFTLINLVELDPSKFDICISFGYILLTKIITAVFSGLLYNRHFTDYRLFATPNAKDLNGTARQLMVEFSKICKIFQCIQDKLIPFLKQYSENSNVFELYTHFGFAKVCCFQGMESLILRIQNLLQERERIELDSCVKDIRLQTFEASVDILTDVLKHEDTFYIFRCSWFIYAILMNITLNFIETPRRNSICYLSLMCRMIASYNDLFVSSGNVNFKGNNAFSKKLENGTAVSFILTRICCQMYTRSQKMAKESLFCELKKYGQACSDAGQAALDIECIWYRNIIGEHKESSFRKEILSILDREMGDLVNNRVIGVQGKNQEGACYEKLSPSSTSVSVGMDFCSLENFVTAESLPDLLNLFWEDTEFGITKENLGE
Experiment: PBM E-score (8-mer binding enrichment) (E-score (-0.5 to 0.5)); higher = stronger / more preferred TF binding
Conditions: protein concentration: 100 nM; construct: GST-full length
In short: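 The E-score, a modified Wilcoxon-Mann-Whitney statistic, was computed by the Universal PBM Analysis Suite for every ungapped eight-base word pooled with its reverse complement. Scans behind it were normalised with masliner after bound GST-tagged yeast transcription factors were detected with fluorescent anti-GST. The proteins, at about 100-200 nM, had been applied to universal all-10-mer Agilent arrays made double-stranded by primer extension.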

Sequence	PBM E-score
GACGCTAC	-0.0102
CTATACCC	-0.085
CTTACCAA	0.103
TGTCACAA	0.257
ACTAACCT	0.0571
CGGACGAG	0.185
GTACCGCA	0.226
AATGAATA	-0.0133
CCAACACG	-0.0252
GCCTGTCC	-0.0809
GGGTTTTA	-0.0731
ACGCCCGG	0.266
CGGGGCTA	-0.119
AAGTCTTG	0.0186
CTTTACTC	-0.0421
AGTACCCA	-0.253
CTGCTCCC	-0.116
TCCTTAAA	-0.0526
ATAAAGTA	0.227
AAAAGCTA	-0.00714
CACCCTCA	-0.268
GATCAACA	0.0638
CGTGAGAC	-0.0524
AAACCTGG	-0.147
CACGAGCA	-0.133

Sequence	PBM E-score
TCCGCAGA	-0.0109
ATCCGCGC	0.141
AATCTCGG	0.263
CATACATG	-0.058
CTCCAAGC	-0.181
GGGCGCGA	0.0674
AGAGGAAG	-0.0422
CAGCCTCC	-0.248
ATGTTACG	-0.021
ACTCGCAA	0.0905
CCCTCAGC	-0.0999
AAATCACG	0.155
CCCGCGGC	0.35
GGCCTCAA	0.0126
AGCCCCGG	0.131
ATTAAAAT	0.265
TAATAAGA	0.199
CTTATTCA	-0.132
CGGGACTC	0.0381
ATCCCTGG	-0.121
AGAAATAT	0.152
CGTCGAGA	0.0489
AATAACTA	0.00633
CGGAGTAA	0.313
GACGTGGC	-0.302

Sequence	PBM E-score
AAACACGC	0.014
CAAGTAGG	-0.157
GACCTCTA	-0.0248
GACGATCA	-0.144
ACGTCGCG	0.0799
GTCATAAA	0.137
GCTTTGGA	0.13
AACATCGC	-0.158
AATTGGAT	0.0921
CAACTCCA	-0.139
ATGCAAGA	0.0225
ACCAGGCG	-0.0635
GAAGTCTA	-0.243
AGGATAAT	0.0292
AGCATCGA	0.0924
AACATCTT	0.0303
TGTGCGAA	-0.163
CCATTAAG	-0.0869
AAAACATT	0.0702
GCAATGAC	-0.0926
CGGTAGTC	0.084
TCCCACAA	-0.0807
CAGTGCCC	-0.153
AATACTCC	-0.00405
CGTCGGGC	-0.0962

Sequence	PBM E-score
GAACTAAC	0.158
CTTATCCC	-0.0328
CCTTTCCA	-0.0114
GCCTCTAA	-0.221
CGATAACC	0.0924
GGTCAGAC	-0.221
ATCCATCA	-0.186
GCACGGGA	0.158
GACCTTTA	0.0364
CTGCCCGC	-0.0137
CGGTTATA	0.0659
GAAGCGTA	-0.0311
ACTGAGGC	0.179
AACTGGAT	0.153
AATCTATC	-0.0774
ATAAAGTG	0.174
CCTAGGAA	0.0223
GATGTCTA	-0.00433
CTGAAGCC	-0.0315
AATGGAAT	0.124
CCTTTACG	0.0566
CTGACTCA	-0.215
CAGTACGC	-0.132
ACTAGATA	0.0984
CAATGTGG	-0.171

Sequence	PBM E-score
ATAGTTTC	-0.00249
GGCGAGAC	-0.215
ATTTTGTC	0.131
CAGTCGAA	-0.184
AAGTTATT	0.178
GGCCATCA	-0.0635
ACCTTCAT	-0.00129
ACGCTAAA	0.0442
GATCTGAA	0.0519
CGGTGTCC	0.153
ACTTTTTA	0.0977
AAGATAAC	0.068
TGCCCTAA	-0.217
ACGTAGCT	-0.118
GCAGCGCC	-0.00836
ATCGTAAA	-0.00064
GGCGTGTA	-0.179
CTGGGTGA	0.086
GCAACGCA	-0.069
TCACCCGA	0.0554
AGAGCAAT	-0.105
AAGAGCGG	-0.0389
CACCTTTC	-0.137
GACATTGC	-0.175
ATATTTAA	0.306

Sequence	PBM E-score
ATGGTCCC	-0.195
CGGTACTC	-0.0527
GCATAAAC	0.0879
CACTAAGA	0.0113
CGGGCCAA	-0.113
ATCCTGTC	0.0638
AACATAGT	0.0272
ATAGCTCA	-0.155
AAAAAGAC	0.0812
AGCTGATA	-0.0203
TCAGACGA	-0.0957
CTAAGTAC	0.0725
AAGAGGAC	-0.0988
CACATCAC	-0.0326
GCGCAAGC	-0.174
ACGCTTAA	0.00513
ACACCAGC	-0.289
TAGACTCA	0.0545
ACTCGGTC	0.19
TACCATCA	-0.165
CGCTTTGA	-0.0367
AGGGGACC	-0.276
ATAATAAA	0.276
AACTCGCG	0.125
GCCTACTA	-0.116

Sequence	PBM E-score
ATTAGTTG	0.137
CTAATACC	0.0914
ACTAGTCC	0.0395
GGGTAAGA	-0.0467
CGGTAAAC	0.216
AATGGCGC	-0.165
AAGGTGGA	-0.00775
AGACATCG	-0.123
ATCCTGAA	0.102
ATGCCAAA	-0.0656
CGATTACA	0.0248
CACAGCAA	0.175
ACTGCTAT	-0.108
CGACGTAA	0.15
GTCCCCGA	-0.142
CGACTCAA	0.0276
ACCGGTAT	0.081
CGGACAGC	0.255
CCGAGAGA	0.212
ACGCGCGA	-0.00575
AACTCATA	0.146
AGTTATAT	0.0788
GTACGAAA	0.239
GAACTATA	0.204
ACTCTAGG	-0.198

Sequence	PBM E-score
ACTCACCT	-0.297
AAAGAGCA	0.0786
GAGTTTCC	0.178
GTTGCTCA	-0.0553
CGGGACAG	0.167
AGCGCCAA	-0.231
GTTACCAA	0.00353
ACAGAGTC	-0.214
AAAAACCT	0.111
CTGCCCGA	0.00693
AGTATTAG	0.19
AAATCGGC	0.283
AGCAACCA	0.0575
CGGTGACC	-0.0412
GAACATTA	0.124
ATTGCCTG	-0.0599
AGGGCCTG	-0.329
CCATCACA	-0.124
AACTGATG	-0.068
CACGGATG	0.108
AAAGGGTA	-0.0896
AAGCGCCC	-0.0109
CGAGTCTA	-0.103
TCAAATCA	-0.0758
CAAGGGGA	-0.0979

At a glance, some entries already given.
Sequence	PBM E-score
ACTTTTTA	0.0977
AAGATAAC	0.068
TGCCCTAA	-0.217
ACGTAGCT	-0.118
GCAGCGCC	-0.00836
ATCGTAAA	-0.00064
GGCGTGTA	-0.179
CTGGGTGA	0.086
GCAACGCA	-0.069
TCACCCGA	0.0554
AGAGCAAT	-0.105
AAGAGCGG	-0.0389
CACCTTTC	-0.137
GACATTGC	-0.175
ATATTTAA	0.306
ATGGTCCC	-0.195
CGGTACTC	-0.0527
GCATAAAC	0.0879
CACTAAGA	0.0113
CGGGCCAA	-0.113
ATCCTGTC	0.0638
AACATAGT	0.0272
ATAGCTCA	-0.155
AAAAAGAC	0.0812
AGCTGATA	-0.0203
TCAGACGA	-0.0957
CTAAGTAC	0.0725
AAGAGGAC	-0.0988
CACATCAC	-0.0326
GCGCAAGC	-0.174
ACGCTTAA	0.00513
ACACCAGC	-0.289
TAGACTCA	0.0545
ACTCGGTC	0.19
TACCATCA	-0.165
CGCTTTGA	-0.0367
AGGGGACC	-0.276
ATAATAAA	0.276
AACTCGCG	0.125
GCCTACTA	-0.116
ATTAGTTG	0.137
CTAATACC	0.0914
ACTAGTCC	0.0395
GGGTAAGA	-0.0467
CGGTAAAC	0.216
AATGGCGC	-0.165
AAGGTGGA	-0.00775
AGACATCG	-0.123
ATCCTGAA	0.102
ATGCCAAA	-0.0656
CGATTACA	0.0248
CACAGCAA	0.175
ACTGCTAT	-0.108
CGACGTAA	0.15
GTCCCCGA	-0.142
CGACTCAA	0.0276
ACCGGTAT	0.081
CGGACAGC	0.255
CCGAGAGA	0.212
ACGCGCGA	-0.00575
AACTCATA	0.146
AGTTATAT	0.0788
GTACGAAA	0.239
GAACTATA	0.204
ACTCTAGG	-0.198
ACTCACCT	-0.297
AAAGAGCA	0.0786
GAGTTTCC	0.178
GTTGCTCA	-0.0553
CGGGACAG	0.167
AGCGCCAA	-0.231
GTTACCAA	0.00353
ACAGAGTC	-0.214
AAAAACCT	0.111
CTGCCCGA	0.00693
AGTATTAG	0.19
AAATCGGC	0.283
AGCAACCA	0.0575
CGGTGACC	-0.0412
GAACATTA	0.124
ATTGCCTG	-0.0599
AGGGCCTG	-0.329
CCATCACA	-0.124
AACTGATG	-0.068
CACGGATG	0.108
AAAGGGTA	-0.0896
AAGCGCCC	-0.0109

Next part:

Sequence	PBM E-score
GTGTTTCA	-0.098
AAAGGAAA	0.203
ATGTAACA	0.152
CTCGGCGA	0.399
GCTATAAC	-0.00042
AGGAAGGC	-0.0284
CCCTACGC	-0.284
CCCCACCC	-0.0349
CTTCAGAA	0.131
GCCTGAAC	-0.0829
GGGCCACC	-0.0621
CCATATTC	-0.0171
ATCAGCCC	-0.386
CAATGTCC	-0.087
ACCTTCGG	0.197
GTGCCAGA	-0.299
CGGTATAC	0.0988
GGTATGCA	-0.191
GGCTCGAC	-0.0272
GCCTCACC	-0.156
CGCTTGGA	0.0874
CAGTATGC	-0.0894
TATCTCGA	-0.0455
AGTGTAAA	0.105
AGAGGCCT	-0.114

Sequence	PBM E-score
ATCGATGG	-0.0655
AAGGTTGC	-0.19
AAATCTAA	0.0546
AGTTTTGA	0.103
GATCCTCC	-0.178
ACTCTAAT	0.00773
GCAGCAAA	-0.117
ACTCCAAC	0.0431
CGGGGGGC	-0.293
CACGTGTC	-0.17
GGGCCCAA	-0.0842
GGGATTGA	-0.0889
AATGGCCT	-0.0309
GGATGGAA	-0.0548
ATCAGCAG	0.0226
CACTGGAG	-0.292
AGGAGCCT	-0.269
ACAGCGTC	0.0202
GCTTGGGA	-0.16
ACATCCGG	0.397
CGGACGCC	0.104
ACACTCCC	-0.211
CATTTTCA	0.106
CAGGAATA	0.0639
GGTCCGTA	0.178

Sequence	PBM E-score
TTCCGAAA	0.37
CCAAGTTA	-0.117
ATTTAATC	0.248
GGGTCCAA	-0.121
GGAATAAA	0.228
CGGACCTA	0.0584
ATCATAAA	0.173
TAAGTACA	-0.0474
AAATGCCC	-0.175
ACCTTCCG	0.227
ACGATTTG	-0.0682
CTATTAGC	0.171
AACTGGGT	-0.0927
AATTTTAA	0.252
CTGGCTTA	-0.145
GGTTCGCA	-0.0751
CTGTACCC	-0.0139
GGTAAAGA	0.11
GCGGTGCA	-0.287
ATAGCCAA	0.0311
AATGAGTA	0.113
ATTAAATG	0.261
CGTCTGAA	0.0214
CGCGTCGA	0.034
ACAGCACG	0.129

Sequence	PBM E-score
AAAGGCAC	0.0567
CGGCCTAG	0.0513
CTAAAACC	0.066
ACGTACGT	-0.267
ACTACTCA	0.13
ACCGAGCG	0.152
ATCATTTC	0.273
ATACAACG	0.187
AGTACAAG	-0.168
AACACCAA	-0.0707
CTTAATTA	0.112
CAGACTAC	0.00586
ATAGACTC	-0.178
CAACCTTA	-0.103
CAAGCCAA	0.0318
GAGTAGCA	0.0857
ACATCGTA	-0.0414
AGTACTGG	-0.0838
TCGTTCCA	0.0101
ATGTTTGC	-0.0549
ATTAAAGA	0.236
ACATACGA	-0.0105
TCCGTGCA	0.262
GTGATGGA	-0.0356
AGGCCTGG	-0.159

Sequence	PBM E-score
ACACAGCG	0.198
TAGTCCAA	-0.154
CGTTCCAC	-0.0422
CGTCGCGA	0.0973
ACCTGGCT	-0.236
AACATGAC	-0.0671
GCCATGGA	-0.23
GAGTACGA	0.127
TCGGCTCA	0.2
GCAGTATA	0.0249
AGTCCATC	-0.0363
TATCGGAA	0.351
GTGCCCTA	-0.341
GTCGCTTA	0.157
CTAGCGAC	-0.137
AATCCCAG	-0.111
GATTGCCC	-0.19
CGTTTGTC	0.0106
CTAACCAC	-0.0155
ACTGCTTC	-0.21
AGGACTAG	0.00731
GATGCACC	-0.0505
CGGGGGCC	-0.133
CACTCTGC	-0.125
AGACTGAT	-0.0815

Sequence	PBM E-score
GGTCGGTA	0.0252
CGTCAAGC	-0.0178
GTCCGTGA	0.0464
AATGTTCA	-0.0281
CAAGAAGG	-0.217
GTGGACCA	-0.102
GCGGGGAA	-0.0187
CTGCCAAG	-0.151
AGAAAAAG	0.127
GAAGGCCC	-0.183
CCTTCCCG	-0.0498
AGTCAGGA	-0.12
TCGAGAAA	0.0245
AGGGAAGC	-0.264
CCGAATGC	0.259
TCCTAGCA	-0.0909
TTCAAGAA	0.312
GGTTGTAA	-0.0276
CGGGCCGA	0.308
